Results on 47 compounds are retold here after the supplement of paper PMC8104966.

This is one part of the list. Single values are uncertain here, since repeats match poorly.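 Fusion between ACE2-bearing and full-length-spike-bearing U2OS cells was measured by imaging as the percentage of nuclei with both cell types' fluorescent markers. An inhibitory hit is a non-toxic compound whose fusion z-score is below -3, more than three standard deviations beneath the plate's DMSO wells.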

The experiment deals with U2OS ACE2 x SARS-CoV-2 spike co-culture. In words: cell-cell fusion (fraction fused) z-score vs plate DMSO control; higher = more fusion. The note with it: 30 µM; 5 h; toxicity class: non-toxic, passed QC.
For the compound `CC(=O)CCCCn1c(=O)c2c(ncn2C)n(C)c1=O` [Pentoxifylline], the “cell-cell fusion (z-score)” value was inactive: 3.1.

`CC(O)C(O)[C@H]1CNc2nc(N)[nH]c(=O)c2N1.Cl.Cl` (stereo partly drawn) [(6R)-5,6,7,8-Tetrahydro-L-biopterin hydrochloride]: the “cell-cell fusion (z-score)” value is inactive: 1.2.

Consider `Nc1ncnc2c1ncn2[C@@H]1O[C@@H]2COP(=O)(O)O[C@H]2[C@H]1O` [Adenosine 3',5'-cyclic monophosphate], for which the “cell-cell fusion (z-score)” value was inactive: 1.63.

As to `C[C@@H]1O[C@@H](OC[C@H]2OC(Oc3c(-c4ccc(O)c(O)c4)oc4cc(O)cc(O)c4c3=O)[C@H](O)[C@@H](O)[C@@H]2O)[C@H](O)[C@H](O)[C@H]1O` (some centres not stated), the “cell-cell fusion (z-score)” value was inactive: 2.86.

For `CCCNC(=O)Nc1ccc(Oc2ncnc3cc(OC)c(OC)cc23)cc1Cl`, the “cell-cell fusion (z-score)” value is inactive: 0.756.

`CC(=O)OCC(=O)[C@@]12OC3(CCCC3)O[C@@H]1C[C@H]1[C@@H]3CCC4=CC(=O)C=C[C@]4(C)[C@@]3(F)[C@@H](O)C[C@@]12C` [Amcinonide]: the “cell-cell fusion (z-score)” value is inactive: 1.2.

Take `Cl.CNCC\C=C1\c2ccccc2CCc2ccccc12` [Nortriptyline hydrochloride]: the “cell-cell fusion (z-score)” value was inactive: -1.23.

`FC(F)c1nc2ccccc2n1-c1nc(N2CCOCC2)nc(N2CCOCC2)n1`: the “cell-cell fusion (z-score)” value was inactive: 0.758.

With `CCC(CCC(C)[C@H]1CCC2C3CC=C4C[C@@H](O)CC[C@]4(C)C3CC[C@@]21C)C(C)C` (stereo partly drawn) [beta-SITOSTEROL], the “cell-cell fusion (z-score)” value was inactive: 1.86.

As to `NS(=O)(=O)c1cc2c(cc1Cl)N=C(CSCc1ccccc1)NS2(=O)=O`, the “cell-cell fusion (z-score)” value was inactive: 1.4.

As for `CCN(C)C(=O)Oc1cccc([C@H](C)N(C)C)c1` [Rivastigmine], the “cell-cell fusion (z-score)” value is inactive: 1.01.

For `C[C@@H]1CC2C3CCC4=CC(=O)C=C[C@]4(C)[C@@]3(F)[C@@H](O)C[C@]2(C)[C@H]1C(=O)CO` (some centres not stated), the “cell-cell fusion (z-score)” value was inactive: 3.63.

For the compound `Cc1nccc2c1[nH]c1ccccc12` [Harmane], the “cell-cell fusion (z-score)” value was inactive: 0.00565.

Consider `CN(C)CCCN1c2ccccc2CCc2ccc(Cl)cc21.Cl` [Clomipramine hydrochloride], for which the “cell-cell fusion (z-score)” value is inactive: 2.15.

In the case of `NC1(C(=O)O)CCc2cc(C(=O)O)ccc21` (configuration not stated), the “cell-cell fusion (z-score)” value is inactive: 1.73.

On to `CC(=O)Nc1ccc(O)cc1` [Acetaminophen], for which the “cell-cell fusion (z-score)” value was inactive: 2.85.

As for `COc1cc2c(Oc3ccc4[nH]c(C)cc4c3F)ncnc2cc1OCCCN1CCCC1` [Cediranib (AZD2171)], the “cell-cell fusion (z-score)” value was inactive: 1.61.

For `CC(C)=CCCC1(C)C=Cc2c(O)c3c(c(CC=C(C)C)c2O1)OC12C(=CC4CC1C(C)(C)OC2(C/C=C(/C)C(=O)O)C4O)C3=O` (configuration not stated), the “cell-cell fusion (z-score)” value is inactive: 2.83.

As to `N=C(N)NOCC[C@H](N)C(=O)O`, the “cell-cell fusion (z-score)” value was inactive: 2.39.

For the compound `Cc1nnc(C(C)C)n1C1CC2CCC(C1)N2CC[C@H](NC(=O)C1CCC(F)(F)CC1)c1ccccc1` (some centres not stated) [Maraviroc], the “cell-cell fusion (z-score)” value is inactive: 3.18.

Turning to `C=CC(=O)Nc1cccc(Nc2nc(Nc3ccc(N4CCN(C(C)=O)CC4)cc3OC)ncc2C(F)(F)F)c1`, the “cell-cell fusion (z-score)” value was inactive: -1.17.

As for `COC(=O)c1c(C)cc(OC(=O)c2c(C)cc(O)c(CO)c2O)c(C)c1O`, the “cell-cell fusion (z-score)” value is inactive: 1.43.

Turning to `CC1=C(C/C=C(\C)CCC[C@H](C)CCC[C@H](C)CCCC(C)C)C(=O)c2ccccc2C1=O` [Vitamin K1], the “cell-cell fusion (z-score)” value was inactive: 4.

With `Cn1cc(C(=O)OCC2CCN(CCNS(C)(=O)=O)CC2)c2ccccc21`, the “cell-cell fusion (z-score)” value is inactive: 2.83.

With `CN1C(CC(=O)c2ccccc2)CCCC1CC(O)c1ccccc1.Cl` (configuration not stated), the “cell-cell fusion (z-score)” value was inactive: 2.84.

As for `Cc1ccccc1CN1C2=NCCN2C(=O)C2=C1CCN(Cc1ccccc1)C2`, the “cell-cell fusion (z-score)” value was inactive: 2.2.

For `CN(C)CCCN1c2ccccc2Sc2ccccc21.Cl` [Promazine hydrochloride], the “cell-cell fusion (z-score)” value was inactive: 1.97.

As to `COc1ccc(CCNc2nc(N3CCc4cc(OC)c(OC)cc4C3)c3cc(OC)c(OC)cc3n2)cc1OC.Cl`, the “cell-cell fusion (z-score)” value was active: -4.41.

On to `Cl.N=C1CCCN1Cc1[nH]c(=O)[nH]c(=O)c1Cl` [Tipiracil hydrochloride], for which the “cell-cell fusion (z-score)” value was inactive: 1.72.

With `CN(C)CCc1c[nH]c2ccc(C[C@H]3COC(=O)N3)cc12` [Zolmitriptan], the “cell-cell fusion (z-score)” value is inactive: 2.34.

With `O=C(O)CCCC[C@@H]1SC[C@@H]2NC(=O)N[C@@H]21` [D-Biotin], the “cell-cell fusion (z-score)” value is inactive: 1.22.

As for `Cl.NCC(O)c1ccc(O)cc1` (configuration not stated), the “cell-cell fusion (z-score)” value was inactive: 1.84.

Take `N#CNC(=N)N`: the “cell-cell fusion (z-score)” value is inactive: 2.46.

On to `CCCc1cc(=O)[nH]c(=S)[nH]1` [Propylthiouracil], for which the “cell-cell fusion (z-score)” value is inactive: 2.24.

For `CNCC(=O)c1ccc(O)c(O)c1.Cl`, the “cell-cell fusion (z-score)” value is active: -3.91.

Consider `CCN(CC)CCNC(C(=O)OCCC(C)C)c1ccccc1.Cl.Cl` (configuration not stated), for which the “cell-cell fusion (z-score)” value was inactive: 2.42.

As to `CC(=O)N[C@H]1[C@H]([C@H](O)[C@H](O)CO)OC(C(=O)O)=C[C@@H]1NC(=N)N` [Zanamivir], the “cell-cell fusion (z-score)” value was inactive: 2.04.

Regarding `CC(CCC(=O)O)[C@H]1CCC2C3C(=O)C[C@@H]4CC(=O)CC[C@]4(C)C3CC(=O)[C@@]21C` (some centres not stated), the “cell-cell fusion (z-score)” value is inactive: 0.732.

On to `Br.CN1CCC[C@@H]1Cc1c[nH]c2cc(CCS(=O)(=O)c3ccccc3)ccc12`, for which the “cell-cell fusion (z-score)” value was inactive: 2.48.

For the compound `NCC(=O)NCC(=O)O`, the “cell-cell fusion (z-score)” value was inactive: 1.74.

Consider `CC(C)c1nc(CN(C)C(=O)N[C@H](C(=O)N[C@@H](Cc2ccccc2)C[C@H](O)[C@H](Cc2ccccc2)NC(=O)OCc2cncs2)C(C)C)cs1`, for which the “cell-cell fusion (z-score)” value is inactive: 2.77.

In the case of `C[C@H](N)[C@H](O)c1ccccc1`, the “cell-cell fusion (z-score)” value was inactive: 1.19.

For `COc1c(OC)c2occc2c2oc(=O)ccc12`, the “cell-cell fusion (z-score)” value was inactive: 1.11.

On to `COC(=O)CCC(C)[C@H]1CCC2C3C(C[C@H](O)[C@@]21C)[C@@]1(C)CC[C@@H](O)C[C@H]1C[C@H]3O` (some centres not stated), for which the “cell-cell fusion (z-score)” value was inactive: -1.06.

For the compound `CC(=O)Oc1cccc2c1C(=O)c1c(OC(C)=O)cc(C(=O)O)cc1C2=O`, the “cell-cell fusion (z-score)” value was inactive: 1.66.

As for `COc1cc2c(cc1OC)C(=O)C(CC1CCN(Cc3ccccc3)CC1)C2` (configuration not stated) [Donepezil], the “cell-cell fusion (z-score)” value was inactive: 2.42.

For the compound `O=C(O)c1cc2cc(F)ccc2[nH]1` [5-Fluoroindole-2-carboxylic acid], the “cell-cell fusion (z-score)” value is inactive: 1.66.
